Assay [1] deals with T1, SDG26-GFP (Arabidopsis thaliana) (UniProt Q84WW6).
T1 sequence: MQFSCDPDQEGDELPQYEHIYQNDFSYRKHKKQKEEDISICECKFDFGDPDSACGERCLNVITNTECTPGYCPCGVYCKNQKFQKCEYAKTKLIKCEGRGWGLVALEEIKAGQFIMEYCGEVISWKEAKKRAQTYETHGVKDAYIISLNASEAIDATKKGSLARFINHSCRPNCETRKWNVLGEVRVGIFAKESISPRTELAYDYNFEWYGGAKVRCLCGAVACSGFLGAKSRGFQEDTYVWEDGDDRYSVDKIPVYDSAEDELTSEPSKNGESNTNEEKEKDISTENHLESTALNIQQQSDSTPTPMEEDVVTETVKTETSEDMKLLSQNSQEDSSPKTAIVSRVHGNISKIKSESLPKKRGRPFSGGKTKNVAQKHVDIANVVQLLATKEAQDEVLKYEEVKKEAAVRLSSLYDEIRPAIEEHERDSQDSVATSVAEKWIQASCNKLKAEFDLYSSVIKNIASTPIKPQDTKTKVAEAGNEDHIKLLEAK
Briefly: affinity purification with mass spectrometry; cross-linked nuclear immunoprecipitation and mass spectrometry (CLNIP-MS) of SDG26 and of LD from transgenic Arabidopsis plants; Col-0 and a line expressing GFP alone as negative controls.

Sequences of proteins named here, by UniProt entry; tags and fusion partners are left off.
UniProt P38420: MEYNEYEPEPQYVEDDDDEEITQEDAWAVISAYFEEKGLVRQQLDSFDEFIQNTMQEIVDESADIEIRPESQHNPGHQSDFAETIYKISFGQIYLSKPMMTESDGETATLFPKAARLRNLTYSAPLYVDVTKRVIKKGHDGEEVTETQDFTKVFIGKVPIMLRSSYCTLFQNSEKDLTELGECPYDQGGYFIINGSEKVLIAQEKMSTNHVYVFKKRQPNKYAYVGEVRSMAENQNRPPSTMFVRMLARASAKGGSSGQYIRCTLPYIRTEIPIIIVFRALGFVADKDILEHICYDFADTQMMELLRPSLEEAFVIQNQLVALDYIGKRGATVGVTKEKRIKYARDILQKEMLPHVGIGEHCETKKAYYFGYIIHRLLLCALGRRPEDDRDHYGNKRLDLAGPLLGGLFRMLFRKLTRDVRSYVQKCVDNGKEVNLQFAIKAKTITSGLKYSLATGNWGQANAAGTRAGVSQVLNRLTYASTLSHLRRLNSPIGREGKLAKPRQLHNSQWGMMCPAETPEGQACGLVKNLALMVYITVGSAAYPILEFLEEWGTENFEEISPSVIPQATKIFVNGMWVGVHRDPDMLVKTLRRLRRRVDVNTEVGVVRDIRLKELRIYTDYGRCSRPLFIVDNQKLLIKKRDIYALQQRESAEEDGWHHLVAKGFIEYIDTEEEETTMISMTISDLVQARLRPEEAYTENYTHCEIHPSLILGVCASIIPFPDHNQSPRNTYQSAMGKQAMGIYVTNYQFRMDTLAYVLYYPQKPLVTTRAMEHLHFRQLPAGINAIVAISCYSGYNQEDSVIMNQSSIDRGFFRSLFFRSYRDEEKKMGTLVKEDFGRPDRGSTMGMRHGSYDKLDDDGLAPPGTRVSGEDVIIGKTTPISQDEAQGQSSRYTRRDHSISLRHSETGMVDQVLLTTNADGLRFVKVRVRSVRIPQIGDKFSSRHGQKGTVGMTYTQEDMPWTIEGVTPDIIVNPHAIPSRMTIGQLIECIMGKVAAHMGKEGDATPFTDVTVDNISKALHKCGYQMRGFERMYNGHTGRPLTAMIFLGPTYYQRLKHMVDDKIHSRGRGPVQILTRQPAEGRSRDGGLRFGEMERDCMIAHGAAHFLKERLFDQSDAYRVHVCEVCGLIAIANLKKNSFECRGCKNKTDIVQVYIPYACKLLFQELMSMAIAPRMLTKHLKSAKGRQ
UniProt P18616: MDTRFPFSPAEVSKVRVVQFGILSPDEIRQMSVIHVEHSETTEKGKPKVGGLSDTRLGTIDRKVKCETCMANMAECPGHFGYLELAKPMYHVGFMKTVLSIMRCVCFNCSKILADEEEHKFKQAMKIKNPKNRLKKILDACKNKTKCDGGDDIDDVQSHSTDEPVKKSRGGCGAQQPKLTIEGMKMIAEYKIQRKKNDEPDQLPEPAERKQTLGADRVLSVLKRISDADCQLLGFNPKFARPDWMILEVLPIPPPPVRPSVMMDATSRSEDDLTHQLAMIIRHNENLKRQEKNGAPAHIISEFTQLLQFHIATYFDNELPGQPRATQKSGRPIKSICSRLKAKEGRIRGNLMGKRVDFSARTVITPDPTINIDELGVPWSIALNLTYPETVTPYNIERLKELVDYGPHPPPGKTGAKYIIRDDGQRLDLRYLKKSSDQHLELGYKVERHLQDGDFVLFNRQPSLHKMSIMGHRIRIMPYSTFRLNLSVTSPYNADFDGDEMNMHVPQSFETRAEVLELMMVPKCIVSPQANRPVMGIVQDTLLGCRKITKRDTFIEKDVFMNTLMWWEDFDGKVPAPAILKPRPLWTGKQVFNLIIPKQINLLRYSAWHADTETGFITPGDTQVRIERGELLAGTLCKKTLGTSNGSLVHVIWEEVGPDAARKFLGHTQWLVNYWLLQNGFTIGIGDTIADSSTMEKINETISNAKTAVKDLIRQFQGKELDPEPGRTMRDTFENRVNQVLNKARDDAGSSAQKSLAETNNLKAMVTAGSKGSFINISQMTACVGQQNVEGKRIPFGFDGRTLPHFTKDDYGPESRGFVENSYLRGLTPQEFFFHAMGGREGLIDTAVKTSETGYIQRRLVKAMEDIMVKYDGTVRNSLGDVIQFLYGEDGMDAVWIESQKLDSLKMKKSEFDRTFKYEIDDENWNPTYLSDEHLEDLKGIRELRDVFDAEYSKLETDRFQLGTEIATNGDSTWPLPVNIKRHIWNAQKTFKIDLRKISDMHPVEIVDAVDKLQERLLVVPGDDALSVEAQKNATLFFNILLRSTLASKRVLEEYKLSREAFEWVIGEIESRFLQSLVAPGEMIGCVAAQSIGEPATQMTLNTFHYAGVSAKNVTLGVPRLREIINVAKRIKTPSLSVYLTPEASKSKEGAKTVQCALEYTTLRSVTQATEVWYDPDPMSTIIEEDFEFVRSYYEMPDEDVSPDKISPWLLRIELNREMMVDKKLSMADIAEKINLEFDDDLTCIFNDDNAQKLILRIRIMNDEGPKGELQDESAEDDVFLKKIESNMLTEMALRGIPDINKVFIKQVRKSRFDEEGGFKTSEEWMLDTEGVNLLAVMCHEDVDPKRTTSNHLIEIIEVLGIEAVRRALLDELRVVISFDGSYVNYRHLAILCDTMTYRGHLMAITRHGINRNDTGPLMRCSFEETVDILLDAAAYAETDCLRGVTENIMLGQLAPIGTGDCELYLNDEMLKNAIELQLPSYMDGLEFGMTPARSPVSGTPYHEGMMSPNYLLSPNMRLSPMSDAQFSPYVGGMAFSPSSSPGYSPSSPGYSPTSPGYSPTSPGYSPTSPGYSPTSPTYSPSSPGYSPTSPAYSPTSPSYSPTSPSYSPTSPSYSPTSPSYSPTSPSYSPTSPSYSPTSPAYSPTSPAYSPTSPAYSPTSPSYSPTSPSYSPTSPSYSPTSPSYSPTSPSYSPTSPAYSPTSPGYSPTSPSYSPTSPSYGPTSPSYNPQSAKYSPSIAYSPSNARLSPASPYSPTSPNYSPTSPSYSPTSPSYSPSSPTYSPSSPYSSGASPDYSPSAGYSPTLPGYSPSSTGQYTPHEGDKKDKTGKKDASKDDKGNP

The target in assay [2] is T1, SDG26-GFP (Arabidopsis thaliana). The description is as above. This is another data set of the same source.
Assay [3] concerns the target T2, FLD tagged at the carboxyl terminus with FLAG-TAP epitopes (FLD-FLAG-TAP) (Arabidopsis thaliana) (UniProt Q9CAE3).
T2 sequence: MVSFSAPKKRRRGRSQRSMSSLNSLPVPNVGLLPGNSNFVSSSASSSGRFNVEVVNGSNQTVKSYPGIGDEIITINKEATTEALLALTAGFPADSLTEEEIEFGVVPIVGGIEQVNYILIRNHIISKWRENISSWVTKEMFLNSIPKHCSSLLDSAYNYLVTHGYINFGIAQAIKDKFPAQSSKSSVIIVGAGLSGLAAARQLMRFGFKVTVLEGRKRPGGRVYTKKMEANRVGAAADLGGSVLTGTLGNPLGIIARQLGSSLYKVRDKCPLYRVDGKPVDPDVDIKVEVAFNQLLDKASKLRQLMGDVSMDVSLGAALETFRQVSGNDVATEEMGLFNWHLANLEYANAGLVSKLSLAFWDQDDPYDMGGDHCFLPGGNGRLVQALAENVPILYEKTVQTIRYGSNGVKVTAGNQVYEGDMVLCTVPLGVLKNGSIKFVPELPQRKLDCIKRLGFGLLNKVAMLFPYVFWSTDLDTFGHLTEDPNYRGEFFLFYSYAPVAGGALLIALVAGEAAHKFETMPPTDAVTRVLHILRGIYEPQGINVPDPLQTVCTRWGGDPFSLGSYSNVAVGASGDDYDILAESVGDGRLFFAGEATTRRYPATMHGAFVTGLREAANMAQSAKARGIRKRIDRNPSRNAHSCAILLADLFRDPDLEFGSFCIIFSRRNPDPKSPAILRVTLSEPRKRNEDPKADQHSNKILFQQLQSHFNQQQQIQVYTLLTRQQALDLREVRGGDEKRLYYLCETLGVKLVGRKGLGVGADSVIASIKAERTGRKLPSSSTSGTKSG
Briefly: affinity purification with mass spectrometry; FLD-FLAG-TAP immunopurified from a transgenic Arabidopsis line, no cross-linking; nontransgenic Col-0 as negative control.

Assay [4] addresses T1, SDG26-GFP (Arabidopsis thaliana). Put plainly: affinity purification with mass spectrometry; GFP purifications of GFP-LD and SDG26-GFP from transgenic Arabidopsis plants (GFP-Trap Magnetic Agarose), no cross-linking; Col-0 and a line expressing GFP alone as negative controls.

These are yes or no findings as the source states them, for the method shown. In cells and extracts the contact can be indirect. These calls come from enrichment with a bait or labelling near it, and not all partners need be listed. Where a sequence is shown, tags or fusion partners need not be part of it.

As to SPT5, the binding entry in assay [1] is reported as “binds”.

For NRPB2 (from UniProt P38420 1-1188), in assay [1], the binding result is “binds”.

With NRPB1 (from UniProt P18616 1-1839), the binding entry in assay [1] is on record as “binds”.

B1: SPT16 (protein, UniProt O82491 1-1074)
chain: MADSRNGNARAPPSGVPPKAGNTYSIDVKNFISRARALYEHWKKHSADLWGSADALAIATPPASDDLRYLKSSALNIWLLGYEFPDTIMVFTKKQIHFLCSRNKASLLEVVKKPAHDELKLDVIMHVKPKGDDGTGLMDAIFRAIRDLSRGDGNDSQVVGHIAREAPEGKLLETWTERLKNANFQFVDITGGLSDLFAVKDDTEVMSVKKAAYLAYSVMKNVVVPNLESAIDEEKDVTHSALMDLTEKAILEPTKASVKLKPENVDICYPPIFQSGGKFDLKPSAASNDELLTYDPASIIICAVGARYNSYCSNVARTYLIDATSLQSKAYEVLLKAHEAAIDALRSGRKINTVYQAALSVVEKNAPEFVDKLTKSAGTGIGLEFRESGLNINAKNDKVLRPKMAFNVSLGFQNLECESESRSKNKKFSLLLADTVLVTDQKPELLTKCSKSVKDVAYSFKEDEEEEKPRKKARTSGSENYITKTALRSDDHVVSKEELRKQHQAELARQKNEETARRLAGDSSGAGDSRSTAKTSADVVAYKNVNDMPHKELMIQVDTRNEAVLLPIYGSLVPFHVATIRTVSGNQDTNRNCYIRIIFNVPGTPFNPHDSNSLKNQGAIYLKEVSFRTKDSRHSSEVTQQIKTLRRQVMARESERAERATLVTQEKLQLAGNKFKPLRLSELWIRPPFSGRKKIPGTLEAHANGFRYSTTRPDERVDVLFANIKHAFFQPAEKEMITLLHFHLHNHIMVGTKKTKDVQFYVEVMDVVQSLGGGRRSAYDPDEIDEEQRERDRKNKINMDFNHFANRVNDMWQLPQFASLDLEFDQPLRELGFHGVPHKTSAFIIPTSSCLVELIEYPFLVVSLSEIEIVNLERVGFGQKNFDMAIIFKDFKKDVLRVDSVPTSSLEGIKEWLDTTDIKYYESKLNLNWRQILKTITDDPQSFIDDGGWEFLNLDGSDSESGGSEESDKGYEPSDVEVESESEDEASESESLVESDDDEEEDSEQESEEEKGKTWDELEREATNADREHGVESDSEEERKRRKMKAFGKSRPGTSGGGGSSSMKNMPPSKRKHR
As to B1, the binding entry in assay [2] was “binds”.

B2: FCA (protein, UniProt O04425 1-747)
chain: MNGPPDRVDFKPMGPHHGGSFRPMGFAYDDGFRPMGPNGGVGGEGTRSIVGARYNYPAKYPPSESPDRRRFIGKAMESDYSVRPTTPPVQQPLSGQKRGYPISDHGSFTGTDVSDRSSTVKLFVGSVPRTATEEEIRPYFEQHGNVLEVALIKDKRTGQQQGCCFVKYATSKDADRAIRALHNQITLPGGTGPVQVRYADGERERIGTLEFKLFVGSLNKQATEKEVEEIFLQFGHVEDVYLMRDEYRQSRGCGFVKYSSKETAMAAIDGLNGTYTMRGCNQPLIVRFAEPKRPKPGESREMAPPVGLGSGPRFQASGPRPTSNFGDSSGDVSHTNPWRPATSRNVGPPSNTGIRGAGSDFSPKPGQATLPSNQGGPLGGYGVPPLNPLPVPGVSSSATLQQQNRAAGQHITPLKKPLHSPQGLPLPLRPQTNFPGAQAPLQNPYAYSSQLPTSQLPPQQNISRATAPQTPLNINLRPTTVSSATVQFPPRSQQQPLQKMQHPPSELAQLLSQQTQSLQATFQSSQQAISQLQQQVQSMQQPNQNLPLSQNGRAGKQQWAGSAIPRVASTTGSTPVSYVQTAAPAVSQSVGSVKCTWTEHTSPDGFKYYYNGLTGESKWEKPEEMIVFEREQQKQQQHQEKPTIQQSQTQLQPLQQQPQQVQQQYQGQQLQQPFYSSLYPTPGASHNTQYPSLPVGQNSQFPMSGIGQNAQDYARTHIPVGAASMNDISRTQQSRQSPQELMWKNKA
Turning to B2, in assay [2], the binding entry is on record as “binds”.

B3: LU… (LD) (endogenous) (protein, UniProt Q38796 1-953)
chain: MDAFKEEIEIGSSVESLMELLDSQKVLFHSQIDQLQDVVVAQCKLTGVNPLAQEMAAGALSIKIGKRPRDLLNPKAVKYLQAVFAIKDAISKRESREISALFGITVAQVREFFVTQKTRVRKQVRLSREKVVMSNTHALQDDGVPENNNATNHVEPVPLNSIHPEACSISWGEGETVALIPPEDIPPDISDSDKYFVENIFSLLRKEETFSGQVKLMEWIMQIQDASVLIWFLSKGGVLILTTWLSQAASEEQTSVLLLILKVLCHLPLHKASPENMSAILQSVNGLRFYRISDISNRAKGLLSRWTKLFAKIQAMKKQNRNSSQIDSQSQLLLKQSIAEIMGDSSNPEDILSLSNGKSENVRRIESSQGPKLLLTSADDSTKKHMLGSNPSYNKERRKVQMVEQPGQKAAGKSPQTVRIGTSGRSRPMSADDIQKAKMRALYMQSKNSKKDPLPSAIGDSKIVAPEKPLALHSAKDSPPIQNNEAKTEDTPVLSTVQPVNGFSTIQPVNGPSAVQPVNGPLAVQPVNGPSALQPVNGPSAVIVPVQADEIKKPSTPPKSISSKVGVMMKMSSQTILKNCKRKQIDWHVPPGMELDELWRVAAGGNSKEADVQRNRNRRERETTYQSLQTIPLNPKEPWDREMDYDDSLTPEIPSQQPPEESLTEPQDSLDERRIAAGAATTSSSLSSPEPDLELLAALLKNPDLVYALTSGKPSNLAGQDMVKLLDVIKTGAPNSSSSSNKQVEERVEVSLPSPTPSTNPGMSGWGQEGIRNPFSRQNQVGTAVARSGTQLRVGSMQWHQTNEQSIPRHAPSAYSNSITLAHTEREQQQYMQPKLHHNLHFQQQQQQPISTTSYAVREPVGQMGTGTSSSWRSQQSQNSYYSHQENEIASASQVTSYQGNSQYMSSNPGYESWSPDNSPSRNQLNMRGQQQQASRKHDSSTHPYWNQNKRWR
For B3, the binding result in assay [3], in assay [4] and in assay [2] was “binds” each time.

B4: Cleavage/Polyadenylation Specificity Factor 160 (CPSF160) (protein, UniProt Q9FGR0 1-1442)
chain: MSFAAYKMMHWPTGVENCASGYITHSLSDSTLQIPIVSVHDDIEAEWPNPKRGIGPLPNVVITAANILEVYIVRAQEEGNTQELRNPKLAKRGGVMDGVYGVSLELVCHYRLHGNVESIAVLPMGGGNSSKGRDSIILTFRDAKISVLEFDDSIHSLRMTSMHCFEGPDWLHLKRGRESFPRGPLVKVDPQGRCGGVLVYGLQMIILKTSQVGSGLVGDDDAFSSGGTVSARVESSYIINLRDLEMKHVKDFVFLHGYIEPVIVILQEEEHTWAGRVSWKHHTCVLSALSINSTLKQHPVIWSAINLPHDAYKLLAVPSPIGGVLVLCANTIHYHSQSASCALALNNYASSADSSQELPASNFSVELDAAHGTWISNDVALLSTKSGELLLLTLIYDGRAVQRLDLSKSKASVLASDITSVGNSLFFLGSRLGDSLLVQFSCRSGPAASLPGLRDEDEDIEGEGHQAKRLRMTSDTFQDTIGNEELSLFGSTPNNSDSAQKSFSFAVRDSLVNVGPVKDFAYGLRINADANATGVSKQSNYELVCCSGHGKNGALCVLRQSIRPEMITEVELPGCKGIWTVYHKSSRGHNADSSKMAADEDEYHAYLIISLEARTMVLETADLLTEVTESVDYYVQGRTIAAGNLFGRRRVIQVFEHGARILDGSFMNQELSFGASNSESNSGSESSTVSSVSIADPYVLLRMTDDSIRLLVGDPSTCTVSISSPSVLEGSKRKISACTLYHDKGPEPWLRKASTDAWLSSGVGEAVDSVDGGPQDQGDIYCVVCYESGALEIFDVPSFNCVFSVDKFASGRRHLSDMPIHELEYELNKNSEDNTSSKEIKNTRVVELAMQRWSGHHTRPFLFAVLADGTILCYHAYLFDGVDSTKAENSLSSENPAALNSSGSSKLRNLKFLRIPLDTSTREGTSDGVASQRITMFKNISGHQGFFLSGSRPGWCMLFRERLRFHSQLCDGSIAAFTVLHNVNCNHGFIYVTAQGVLKICQLPSASIYDNYWPVQKIPLKATPHQVTYYAEKNLYPLIVSYPVSKPLNQVLSSLVDQEAGQQLDNHNMSSDDLQRTYTVEEFEIQILEPERSGGPWETKAKIPMQTSEHALTVRVVTLLNASTGENETLLAVGTAYVQGEDVAARGRVLLFSFGKNGDNSQNVVTEVYSRELKGAISAVASIQGHLLISSGPKIILHKWNGTELNGVAFFDAPPLYVVSMNVVKSFILLGDVHKSIYFLSWKEQGSQLSLLAKDFESLDCFATEFLIDGSTLSLAVSDEQKNIQVFYYAPKMIESWKGLKLLSRAEFHVGAHVSKFLRLQMVSSGADKINRFALLFGTLDGSFGCIAPLDEVTFRRLQSLQKKLVDAVPHVAGLNPLAFRQFRSSGKARRSGPDSIVDCELLCHYEMLPLEEQLELAHQIGTTRYSILKDLVDLSVGTSFL
For the molecule B4, the binding entry in assay [2] was “binds”.

(Values after PMC7334503.)
